# The whole screen tested about 300,000 compounds, of which about 3,700 (1.2%) were called active. The inconclusive results got no clear call from the source; some entries with a clear call stand among them for comparison. Calls come from the whole dose curve; tested in HEK293 cells. Potencies of inconclusive entries are doubtful fits and often do not repeat.
# Test: qHTS for Inhibitors of binding or entry into cells for Lassa Virus; note: nearly all actives have a fitted effect of over 50% in size
# Settings: Lassa virus pseudotype entry inhibition, cell reporter; activity change, negative = inhibition: at 37.9 µM (top of the series) unless noted
# % is set by controls: 0 for no effect and ±100 for the full control effect; potency is the fitted concentration of half-maximal effect.
SMILES,"activity change, negative = inhibition",Potency
CC1(C)CNc2cc([N+](=O)[O-])ccc2S1,inactive: 10.1%,–
O=C(COC(=O)c1cccs1)NCc1ccco1,–,"inconclusive: 1.41 µM [inhibitor, partial curve, poor fit]"
CC(CC(=O)O)CC(=O)N1CCN(S(=O)(=O)c2cccs2)CC1 (configuration not stated),–,"inconclusive: 5.01 µM [activator, full curve, poor fit]"
Cc1ccc(-c2noc(-c3ccc(N4CCC(C)CC4)c([N+](=O)[O-])c3)n2)cc1,inactive: -4.57% [at 46.1 µM],–
CC(C)(C)n1cnc2cc(NC(=O)c3ccc(Cl)cc3)ccc21,–,"inconclusive: 0.562 µM [activator, partial curve, poor fit]"
CCOc1ccccc1NS(=O)(=O)c1cccs1,inactive: 10.7%,–
N#Cc1c(N)nc2c(c1-c1cccnc1)CCCCC2,–,"inconclusive: 16.4 µM [inhibitor, partial curve, poor fit]"
COc1cccc([C@H](O)Cn2cc(-c3ccc(CON=C(C)C)cc3)nn2)c1,–,"inconclusive: 0.517 µM [inhibitor, full curve, poor fit]"
O=S(=O)(c1ccc(Br)cc1)N1CCN(c2cc(-c3ccccc3)nc3ncnn23)CC1,–,"inconclusive: 20.6 µM [inhibitor, single point]"
CCOc1cc(/C=N\Nc2ccc([N+](=O)[O-])cc2)ccc1OCC(=O)Nc1ccc(C)c(C)c1,inactive: 0.0518%,–
O=C(NCc1cccs1)C(=O)c1cn(CC(=O)N2CCCC2)c2ccccc12,inactive: 7.1%,–
COc1ccc(N2CCN(C(=O)CNC(=O)c3nn(-c4ccc(OC)cc4)c(=O)c4ccccc34)CC2)cc1,–,"inconclusive: 35.5 µM [inhibitor, single point]"
O=C(CN(Cc1ccc(F)cc1)C(=O)CNS(=O)(=O)c1ccccc1)NCc1ccco1,–,"inconclusive: 3.55 µM [inhibitor, single point]"
CCc1noc(C)c1C(=O)N1CCCSC1=Nc1ccccc1Cl,–,"inconclusive: 35.5 µM [inhibitor, partial curve, poor fit]"
Cc1cccc(OCCSCc2nc3ccccc3[nH]2)c1,–,"inconclusive: 12.6 µM [inhibitor, single point]"
COc1cccc(CNCCNC(=O)c2ccco2)c1OC,–,"inconclusive: 22.4 µM [activator, partial curve, poor fit]"
Cn1cc(CC(=O)N2CCN(c3ccc(Cl)cc3)CC2)c2ccccc21,–,"inconclusive: 15.8 µM [inhibitor, partial curve, poor fit]"
CCCN(CCC)C(=O)CSc1nc2ccccc2c(=O)n1CC1COc2ccccc2O1 (configuration not stated),–,"inconclusive: 0.651 µM [inhibitor, full curve, poor fit]"
CCn1c(/C=C/c2ccc(O)cc2)nc2ccccc2c1=O,–,"inconclusive: 17.8 µM [inhibitor, single point]"
CCOC(=O)N1CCN(C(=O)C2CCN(C(=O)c3ccccc3C)CC2)CC1,–,"inconclusive: 22.4 µM [inhibitor, partial curve, poor fit]"
CCc1ccccc1NC(=O)/C(C#N)=C/c1ccc(Sc2ccccc2)o1,inactive: 7.8%,–
CC1CCCC(NC(=O)COC(=O)[C@@H](NC(=O)c2ccccc2Cl)C(C)C)C1C (some centres not stated),inactive: 1.56%,–
CC1(C)Cc2cccc(Oc3ccc(S(=O)(=O)N4CCCC4)cn3)c2O1,inactive: -29.2%,–

# A portion of the results above, as a working copy:
SMILES,"activity change, negative = inhibition",Potency
CCn1c(/C=C/c2ccc(O)cc2)nc2ccccc2c1=O,–,"inconclusive: 17.8 µM [inhibitor, single point]"
CCOC(=O)N1CCN(C(=O)C2CCN(C(=O)c3ccccc3C)CC2)CC1,–,"inconclusive: 22.4 µM [inhibitor, partial curve, poor fit]"
CCc1ccccc1NC(=O)/C(C#N)=C/c1ccc(Sc2ccccc2)o1,inactive: 7.8%,–
CC1CCCC(NC(=O)COC(=O)[C@@H](NC(=O)c2ccccc2Cl)C(C)C)C1C (some centres not stated),inactive: 1.56%,–
CC1(C)Cc2cccc(Oc3ccc(S(=O)(=O)N4CCCC4)cn3)c2O1,inactive: -29.2%,–

# Next entries

SMILES,"activity change, negative = inhibition",Potency
CSc1ncccc1C(=O)OCC(=O)c1cc(C)n(CC2CCCO2)c1C (configuration not stated),–,"inconclusive: 17.8 µM [inhibitor, single point]"
CCc1nn(C(C)C(=O)NCCN2CCN(c3cccc(C)c3C)CC2)c(=O)c2cc3occc3n12 (configuration not stated),inactive: -12.6%,–
CCOC(=O)c1sc(=NC(=O)/C=C/c2ccccc2)n(C)c1C,–,"inconclusive: 1 µM [activator, full curve, poor fit]"
O=C(O)CC1(CC(=O)NCc2cc(F)cc3c2OCOC3)CCCCC1,inactive: -2.07%,–
O=C(Nc1cccnc1)c1ccccc1-c1nc(-c2ccccc2F)no1,inactive: 12.6%,–
COc1ccc(Br)cc1CNC(=O)c1cc2ccccn2n1,–,"inconclusive: 22.4 µM [activator, partial curve]"
COc1ccc(NC(=O)Nc2cccc(OC)c2)cc1,–,"inconclusive: 9.2 µM [activator, partial curve, poor fit]"
O=C(NC(=S)Nc1nc2ccccc2s1)c1cccs1,–,"inconclusive: 9.2 µM [activator, partial curve, poor fit]"
O=c1[nH]c(CN2CCN(Cc3ccccc3)CC2)nc2scc(-c3ccccc3)c12,–,"inconclusive: 5.62 µM [inhibitor, partial curve]"
CCOc1ccc(NS(=O)(=O)c2ccc(C(=O)N3CCCC3)cc2)cc1,–,"inconclusive: 6.31 µM [inhibitor, partial curve, poor fit]"
Cc1csc(NC(=O)CSc2nnc3c4ccccc4nc(C(C)(C)C)n23)n1,–,"inconclusive: 3.66 µM [inhibitor, full curve, poor fit]"
Cc1ccc(CSCc2nc3ccccc3[nH]2)cc1,–,"inconclusive: 11.2 µM [inhibitor, partial curve, poor fit]"
CCOc1cccc2cc(-c3nc4sc5c(c4c(=O)[nH]3)CCC(C(C)(C)C)C5)c(=O)oc12 (configuration not stated),–,"inconclusive: 2.51 µM [activator, partial curve, poor fit]"
C#CCN(Cc1ccc(OCCC)cc1)S(=O)(=O)c1ccc(Br)cc1F,inactive: -25.2% [at 46.1 µM],–
CCCCCCn1c(COc2ccccc2F)nnc1SCC(=O)N1c2ccccc2NC(=O)C1(C)C,–,"inconclusive: 9.2 µM [inhibitor, single point]"
Cc1cccc(-n2c(C)n[nH]c2=S)c1C,–,"inconclusive: 2.06 µM [inhibitor, partial curve, poor fit]"
COc1ccc(Br)cc1CNC(=O)c1cc(=O)[nH]c2ccc(S(=O)(=O)N3CCCC3)cc12,–,"inconclusive: 6.31 µM [inhibitor, single point]"
COCc1ccc(C(=O)NCC2(N3CCCCC3)CCCCC2)cc1,–,"inconclusive: 35.5 µM [activator, single point]"
Fc1ccc(Nc2ccnc(Nc3ccc(F)cc3)n2)cc1,inactive: 0.862%,–
CCCCCCCCCC(=O)N/N=C(\C)c1cccnc1,inactive: 3.6%,–
COc1cccc(/C=C/C(=O)c2cccc([N+](=O)[O-])c2)c1OC,–,"inconclusive: 1.58 µM [inhibitor, single point]"
CC(C)(C)C(=O)O[C@H]1CC[C@@]2(C)C(=CC(=O)C3C2CC[C@]2(C)C(=O)[C@H](O)CC32)C1 (some centres not stated),–,"inconclusive: 3.16 µM [inhibitor, full curve, poor fit]"
c1ccc(Sc2ccccc2CN2CCCC2)cc1,–,"inconclusive: 2.51 µM [inhibitor, full curve, poor fit]"

SMILES,"activity change, negative = inhibition",Potency
O=C1CC(c2cccc([N+](=O)[O-])c2)c2ccc3ccccc3c2N1 (configuration not stated),inactive: 3.12%,–
c1ccc(-c2ccc(-c3cnc4n3CCCCC4)cc2)cc1,–,"inconclusive: 35.5 µM [inhibitor, single point]"
Cc1c(C(=O)N2CCC(c3nc4ccccc4s3)CC2)oc2cc(Br)ccc12,inactive: 9.27% [at 46.1 µM],–
COc1ccc(-n2c(C)cc(C(=O)CSc3ccc(NC(C)=O)cc3)c2C)cc1,–,"inconclusive: 18.4 µM [inhibitor, partial curve]"
O=C(NC1CCCCC1)C1CC(=O)N(CCc2ccc(F)cc2)C1 (configuration not stated),–,"inconclusive: 20 µM [activator, partial curve, poor fit]"
Cc1ccccc1OCCC(=O)OCC(=O)N1CCN(S(=O)(=O)c2ccc(Cl)cc2)CC1,–,"inconclusive: 3.16 µM [activator, partial curve, poor fit]"
NS(=O)(=O)c1ccc(-c2cc3ccncc3cc2OCc2ccccc2)cc1,–,"inconclusive: 35.3 µM [inhibitor, partial curve, poor fit]"
COc1cccc(C(=O)Nc2ccc(NC(=O)c3ccco3)nc2)c1,inactive: -8.36%,–
Cc1cc(/C(N)=N/OC(=O)Nc2cccc(C(F)(F)F)c2)no1,inactive: -4.5%,–
c1cc2c(cc1Oc1nc(N3CCOCC3)nc(N3CCOCC3)n1)OCO2,–,"inconclusive: 35.5 µM [inhibitor, single point]"
O=C(Nc1cccc(S(=O)(=O)N2CCOCC2)c1)C1COc2ccccc2O1 (configuration not stated),inactive: 12%,–
Cc1ccc(OCCCC(=O)Nc2cc(S(=O)(=O)N3CCOCC3)ccc2N2CCOCC2)cc1,inactive: -11.3%,–
CC(CN1CCOCC1)OC(=O)c1ccccc1Br (configuration not stated),inactive: 3.27%,–
CC(C)(C)c1ccc(C2Sc3ccccc3NC3=C2C(=O)c2ccccc23)cc1 (configuration not stated),–,"inconclusive: 35.5 µM [inhibitor, single point]"
O=C(OCc1cn([C@@H]2CN(CC3CCCCC3)[C@@H](c3ccc(Cl)cc3)C[C@@H]2O)nn1)c1ccccc1,–,"inconclusive: 12.5 µM [inhibitor, partial curve, poor fit]"
CCOc1ccc(N(CC(=O)Nc2cccc(N(C)S(C)(=O)=O)c2)S(=O)(=O)c2ccccc2)cc1,–,"inconclusive: 29.1 µM [inhibitor, single point]"
O=C(NCCCNCc1ccccc1)c1ccncc1,–,"inconclusive: 20.6 µM [inhibitor, single point]"
CC1CCN(C(=O)CSCC(=O)O)CC1,inactive: 1.35%,–
O=C(Nc1nc2ccccc2s1)C1CCCO1 (configuration not stated),–,"inconclusive: 6.51 µM [activator, single point]"
COc1cc(/C=N/NC(=O)c2ccccn2)ccc1OC(=O)c1ccccc1Br,–,"inconclusive: 35.5 µM [inhibitor, single point]"
Cc1cc(C)cc(OCCn2c(C3CC(=O)N(c4ccccc4Cl)C3)nc3ccccc32)c1 (configuration not stated),–,"inconclusive: 7.08 µM [inhibitor, partial curve, poor fit]"
